This is an account of results in the M2OR odorant receptor database.

This is a selection; strong and weak results do not stand in their true shares. Calls are pooled over several reports, among them a noisy single-well screen. Some of the results follow.

Holding throughout (settings): stereoisomer not certain
One assay has as its system T1, O13C5.
T1 sequence (whole entry): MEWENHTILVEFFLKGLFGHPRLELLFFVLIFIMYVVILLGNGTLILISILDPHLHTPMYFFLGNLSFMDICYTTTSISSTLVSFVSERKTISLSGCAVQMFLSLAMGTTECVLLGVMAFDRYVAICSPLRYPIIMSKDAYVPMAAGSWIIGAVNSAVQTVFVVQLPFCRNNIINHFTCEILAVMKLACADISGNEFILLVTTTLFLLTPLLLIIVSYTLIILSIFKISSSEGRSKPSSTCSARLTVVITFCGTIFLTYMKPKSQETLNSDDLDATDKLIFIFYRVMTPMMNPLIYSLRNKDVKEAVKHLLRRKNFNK
In short, it runs like this:
(§1)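 Each entry records the cell line, G-protein, co-transfected protein and tags used. Methods varied with the source, often transient luciferase assays in mammalian cell lines. A receptor–molecule pair is called responsive (active) if the original authors judged its signal statistically different from baseline and non-responsive (inactive) otherwise.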

A further assay deals with T2, O13C7.
T2 sequence (whole entry): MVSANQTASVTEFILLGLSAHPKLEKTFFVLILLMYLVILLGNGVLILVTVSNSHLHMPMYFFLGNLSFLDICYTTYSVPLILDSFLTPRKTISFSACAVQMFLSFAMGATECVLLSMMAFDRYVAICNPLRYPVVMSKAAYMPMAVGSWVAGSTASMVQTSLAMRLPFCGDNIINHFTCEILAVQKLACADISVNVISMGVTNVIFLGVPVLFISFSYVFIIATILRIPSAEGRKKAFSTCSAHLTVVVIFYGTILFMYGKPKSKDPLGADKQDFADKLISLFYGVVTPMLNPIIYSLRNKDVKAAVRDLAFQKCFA
In short, it runs like this: as §1

The test system of a further assay is T3, O13C9.
T3 sequence (whole entry): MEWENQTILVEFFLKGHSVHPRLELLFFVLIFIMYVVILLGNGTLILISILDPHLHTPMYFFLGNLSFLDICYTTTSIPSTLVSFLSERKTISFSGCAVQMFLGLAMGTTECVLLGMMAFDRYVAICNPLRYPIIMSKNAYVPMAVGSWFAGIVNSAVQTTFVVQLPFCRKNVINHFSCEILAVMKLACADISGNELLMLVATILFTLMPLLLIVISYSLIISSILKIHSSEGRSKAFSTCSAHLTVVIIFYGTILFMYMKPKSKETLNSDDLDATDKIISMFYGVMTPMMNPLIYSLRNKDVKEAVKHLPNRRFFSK
In short, it runs like this: as §1

The subject of assay [1] is T4, O13D1.
T4 sequence (whole entry): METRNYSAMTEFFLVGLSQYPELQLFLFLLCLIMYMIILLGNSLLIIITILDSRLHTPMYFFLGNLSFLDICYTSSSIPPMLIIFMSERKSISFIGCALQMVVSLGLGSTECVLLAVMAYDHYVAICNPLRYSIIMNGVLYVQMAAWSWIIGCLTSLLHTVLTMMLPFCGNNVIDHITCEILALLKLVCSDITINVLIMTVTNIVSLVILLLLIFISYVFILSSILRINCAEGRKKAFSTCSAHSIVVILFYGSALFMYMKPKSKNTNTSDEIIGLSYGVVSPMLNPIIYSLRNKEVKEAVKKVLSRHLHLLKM
In short, it runs like this: as §1

Assay [2] deals with T5, O13D1.
T5 sequence (whole entry): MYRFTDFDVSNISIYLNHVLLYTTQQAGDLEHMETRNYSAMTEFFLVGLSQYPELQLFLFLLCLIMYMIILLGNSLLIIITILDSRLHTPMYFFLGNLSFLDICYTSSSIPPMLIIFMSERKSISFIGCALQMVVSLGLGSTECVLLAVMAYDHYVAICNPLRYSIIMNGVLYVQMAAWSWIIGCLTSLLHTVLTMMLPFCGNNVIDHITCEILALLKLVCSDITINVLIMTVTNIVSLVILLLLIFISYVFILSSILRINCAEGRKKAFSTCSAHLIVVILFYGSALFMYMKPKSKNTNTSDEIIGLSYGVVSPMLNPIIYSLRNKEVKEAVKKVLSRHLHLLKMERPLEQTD
In short, it runs like this: as §1
This is another data set of the same source.

Another assay concerns T6, O13F1.
T6 sequence (whole entry): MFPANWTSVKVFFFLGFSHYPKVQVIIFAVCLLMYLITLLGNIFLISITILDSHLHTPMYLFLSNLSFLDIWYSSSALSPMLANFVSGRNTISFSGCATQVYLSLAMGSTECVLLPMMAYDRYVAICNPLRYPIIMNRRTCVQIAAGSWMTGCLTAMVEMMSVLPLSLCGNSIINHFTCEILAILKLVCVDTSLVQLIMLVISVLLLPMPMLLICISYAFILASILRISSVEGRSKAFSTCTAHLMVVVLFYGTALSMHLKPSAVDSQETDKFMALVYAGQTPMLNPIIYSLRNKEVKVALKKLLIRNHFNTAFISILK
In short, it runs like this:
as §1

The subject of another assay is T7, O13G1.
T7 sequence (whole entry): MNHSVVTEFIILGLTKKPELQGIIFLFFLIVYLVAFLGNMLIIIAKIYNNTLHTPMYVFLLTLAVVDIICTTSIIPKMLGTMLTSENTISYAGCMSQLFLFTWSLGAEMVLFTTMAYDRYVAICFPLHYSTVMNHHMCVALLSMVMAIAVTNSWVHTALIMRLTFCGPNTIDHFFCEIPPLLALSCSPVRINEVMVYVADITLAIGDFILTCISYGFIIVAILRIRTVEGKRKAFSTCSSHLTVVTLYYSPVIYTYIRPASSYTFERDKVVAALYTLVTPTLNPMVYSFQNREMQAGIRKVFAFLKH
An outline of the steps:
as §1

The next assay deals with T8, O13J1.
T8 sequence (whole entry): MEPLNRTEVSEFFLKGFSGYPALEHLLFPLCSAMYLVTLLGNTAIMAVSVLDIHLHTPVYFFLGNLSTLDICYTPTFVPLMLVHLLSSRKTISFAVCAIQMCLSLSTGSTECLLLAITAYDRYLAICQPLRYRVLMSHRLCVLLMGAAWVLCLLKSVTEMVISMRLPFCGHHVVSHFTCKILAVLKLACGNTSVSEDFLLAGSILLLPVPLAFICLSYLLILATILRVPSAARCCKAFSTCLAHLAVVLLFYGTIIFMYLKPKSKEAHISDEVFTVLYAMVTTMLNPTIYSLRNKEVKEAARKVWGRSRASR
In short, it runs like this: as §1

A further assay concerns T9, O14A2.
T9 sequence (whole entry): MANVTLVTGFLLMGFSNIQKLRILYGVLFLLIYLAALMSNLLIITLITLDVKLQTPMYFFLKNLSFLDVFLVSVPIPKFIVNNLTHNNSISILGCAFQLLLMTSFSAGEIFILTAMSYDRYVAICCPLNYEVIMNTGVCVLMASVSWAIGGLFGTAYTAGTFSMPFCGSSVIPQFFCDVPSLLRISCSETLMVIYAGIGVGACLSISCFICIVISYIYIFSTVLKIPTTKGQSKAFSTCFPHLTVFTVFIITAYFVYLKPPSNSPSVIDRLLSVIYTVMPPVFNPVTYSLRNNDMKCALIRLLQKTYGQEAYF
In short, it runs like this:
as §1

Another assay has as its system T10, O14AG.
T10 sequence (whole entry): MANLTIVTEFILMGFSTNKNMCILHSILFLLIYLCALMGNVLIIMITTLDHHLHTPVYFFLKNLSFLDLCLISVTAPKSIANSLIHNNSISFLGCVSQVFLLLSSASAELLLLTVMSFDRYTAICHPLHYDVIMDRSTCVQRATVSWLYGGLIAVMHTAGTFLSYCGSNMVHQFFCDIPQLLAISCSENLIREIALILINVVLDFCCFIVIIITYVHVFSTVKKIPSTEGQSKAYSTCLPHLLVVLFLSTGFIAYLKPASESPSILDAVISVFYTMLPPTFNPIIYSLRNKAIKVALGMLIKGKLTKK
In short, it runs like this:
as §1

Another assay has as its system T11, O14CZ.
T11 sequence (whole entry): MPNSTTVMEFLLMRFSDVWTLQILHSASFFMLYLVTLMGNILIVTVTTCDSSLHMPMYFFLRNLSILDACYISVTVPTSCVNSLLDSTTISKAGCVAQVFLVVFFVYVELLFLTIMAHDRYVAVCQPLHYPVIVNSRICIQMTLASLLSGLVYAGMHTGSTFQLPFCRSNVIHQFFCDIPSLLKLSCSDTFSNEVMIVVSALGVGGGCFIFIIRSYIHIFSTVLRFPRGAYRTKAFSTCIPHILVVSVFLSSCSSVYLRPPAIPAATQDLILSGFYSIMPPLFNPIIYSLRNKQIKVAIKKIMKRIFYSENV
An outline of the steps: as §1

Another assay concerns T12, O14I1.
T12 sequence (whole entry): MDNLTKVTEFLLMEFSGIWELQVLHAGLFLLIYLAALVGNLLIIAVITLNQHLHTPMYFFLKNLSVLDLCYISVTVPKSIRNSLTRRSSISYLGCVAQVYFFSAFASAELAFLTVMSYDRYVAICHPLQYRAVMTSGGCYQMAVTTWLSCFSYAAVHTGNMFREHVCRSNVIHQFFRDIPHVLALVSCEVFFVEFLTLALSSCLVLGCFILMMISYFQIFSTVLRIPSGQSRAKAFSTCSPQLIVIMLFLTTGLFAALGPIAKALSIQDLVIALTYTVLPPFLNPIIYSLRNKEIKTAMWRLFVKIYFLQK
An outline of the steps: as §1

The test system of another assay is T13, O14J1.
T13 sequence (whole entry): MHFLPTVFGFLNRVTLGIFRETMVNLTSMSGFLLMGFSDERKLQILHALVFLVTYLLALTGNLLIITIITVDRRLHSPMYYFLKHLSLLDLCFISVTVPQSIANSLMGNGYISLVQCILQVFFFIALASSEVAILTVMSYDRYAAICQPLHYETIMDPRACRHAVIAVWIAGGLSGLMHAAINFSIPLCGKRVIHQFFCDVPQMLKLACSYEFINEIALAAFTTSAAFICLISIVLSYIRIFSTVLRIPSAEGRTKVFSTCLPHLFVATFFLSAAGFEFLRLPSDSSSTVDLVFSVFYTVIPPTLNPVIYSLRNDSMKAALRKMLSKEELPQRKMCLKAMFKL
In short, it runs like this:
as §1

Another assay has as its system T14, O14K1.
T14 sequence (whole entry): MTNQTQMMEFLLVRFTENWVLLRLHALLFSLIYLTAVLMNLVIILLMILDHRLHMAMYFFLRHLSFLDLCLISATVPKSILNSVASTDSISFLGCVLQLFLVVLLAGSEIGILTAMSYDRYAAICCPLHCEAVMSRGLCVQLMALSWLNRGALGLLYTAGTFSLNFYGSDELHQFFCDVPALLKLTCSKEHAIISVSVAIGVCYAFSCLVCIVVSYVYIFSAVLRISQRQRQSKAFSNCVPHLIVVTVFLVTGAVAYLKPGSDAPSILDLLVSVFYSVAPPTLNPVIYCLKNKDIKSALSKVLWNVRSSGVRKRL
An outline of the steps:
as §1

Assay [3] has as its system T15, O1440.
T15 sequence (whole entry): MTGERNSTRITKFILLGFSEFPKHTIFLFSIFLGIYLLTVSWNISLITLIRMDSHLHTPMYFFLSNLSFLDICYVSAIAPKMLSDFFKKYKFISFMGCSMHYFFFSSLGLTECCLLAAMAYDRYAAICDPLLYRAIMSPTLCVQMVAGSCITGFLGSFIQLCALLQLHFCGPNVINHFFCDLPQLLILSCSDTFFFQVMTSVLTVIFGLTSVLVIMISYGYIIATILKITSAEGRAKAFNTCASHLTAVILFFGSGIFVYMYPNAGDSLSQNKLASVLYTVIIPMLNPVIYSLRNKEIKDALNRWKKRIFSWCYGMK
In short, it runs like this: as §1

Assay [4] has as its system T16, O1440.
T16 sequence (whole entry): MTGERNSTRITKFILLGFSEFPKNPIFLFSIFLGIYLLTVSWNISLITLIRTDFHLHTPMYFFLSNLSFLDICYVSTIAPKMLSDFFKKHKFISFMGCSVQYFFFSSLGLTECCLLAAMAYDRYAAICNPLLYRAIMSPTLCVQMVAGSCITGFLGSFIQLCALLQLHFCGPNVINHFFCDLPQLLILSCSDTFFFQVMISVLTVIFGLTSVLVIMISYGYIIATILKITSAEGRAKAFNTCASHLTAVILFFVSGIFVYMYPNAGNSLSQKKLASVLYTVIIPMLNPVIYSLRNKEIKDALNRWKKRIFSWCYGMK
In short, it runs like this:
as §1
The source holds these as a separate data set.

For the compound `CCCCCC(=O)O`, the “odorant receptor agonist call” value with O13C5, in the assay with O13C7, in the assay with O13C9, in the assay on O13D1 [1], in the assay on O13D1 [2] and with O13F1 was “inactive” each time. For the same compound, the “odorant receptor agonist call” value in the assay with O13G1, in the assay with O13J1, with O14A2, in the assay with O14AG, in the assay on O14CZ and in the assay on O14I1 was “inactive” each time. Also, the “odorant receptor agonist call” value in the assay with O14J1 and with O14K1 was “inactive” in each case.
On to `CCCCO`, for which the “odorant receptor agonist call” value with O13C5, in the assay with O13C7, with O13C9, with O13D1 [1], with O13D1 [2] and in the assay on O13F1 was “inactive” each time. The “odorant receptor agonist call” value with O13G1, in the assay on O13J1, in the assay with O14A2, in the assay with O14AG, with O14CZ and in the assay on O14I1 was “inactive” in each case. The “odorant receptor agonist call” value in the assay with O14J1 and with O14K1 was “inactive” in each case.
Regarding `O=C1CCCCCCCCCCCCCCO1`, the “odorant receptor agonist call” value with O13C5, in the assay with O13C7, in the assay on O13C9, with O13D1 [1], with O13D1 [2] and with O13F1 was “inactive” in each case. Further, the “odorant receptor agonist call” value in the assay with O13G1, with O13J1, in the assay with O14A2, in the assay on O14AG, with O14CZ and with O14I1 was “inactive” in each case. Also, the “odorant receptor agonist call” value in the assay with O14J1 and in the assay on O14K1 was “inactive” each time. Besides, the “odorant receptor agonist call” value with O1440 [3] and in the assay with O1440 [4] was “active” each time.
